# Test results published in the supplement of paper PMC12823440, “Inhibitors supercharge kinase turnover through native proteolytic circuits” (Nature, 2025).
# Amino acid sequences for entries named in this document (tags omitted). A change or cut given only in a name is not applied to a line headed by its entry.
# UniProt P42680: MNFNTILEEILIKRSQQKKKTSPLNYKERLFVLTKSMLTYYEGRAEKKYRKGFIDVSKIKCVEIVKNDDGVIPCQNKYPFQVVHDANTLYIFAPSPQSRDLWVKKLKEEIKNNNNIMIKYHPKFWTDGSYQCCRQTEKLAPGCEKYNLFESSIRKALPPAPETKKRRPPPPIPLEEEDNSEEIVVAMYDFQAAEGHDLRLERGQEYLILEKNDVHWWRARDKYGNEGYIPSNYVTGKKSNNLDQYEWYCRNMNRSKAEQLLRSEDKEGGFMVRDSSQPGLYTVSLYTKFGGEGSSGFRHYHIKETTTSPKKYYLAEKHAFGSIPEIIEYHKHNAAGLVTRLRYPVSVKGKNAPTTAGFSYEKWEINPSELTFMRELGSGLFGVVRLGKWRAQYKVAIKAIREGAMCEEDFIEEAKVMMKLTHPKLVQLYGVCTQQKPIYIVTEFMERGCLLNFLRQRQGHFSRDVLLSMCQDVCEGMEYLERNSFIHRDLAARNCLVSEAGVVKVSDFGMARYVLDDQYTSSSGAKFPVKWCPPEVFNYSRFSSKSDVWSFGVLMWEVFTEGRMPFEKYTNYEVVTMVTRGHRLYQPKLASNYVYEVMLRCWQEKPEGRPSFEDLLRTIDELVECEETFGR
# UniProt P29597: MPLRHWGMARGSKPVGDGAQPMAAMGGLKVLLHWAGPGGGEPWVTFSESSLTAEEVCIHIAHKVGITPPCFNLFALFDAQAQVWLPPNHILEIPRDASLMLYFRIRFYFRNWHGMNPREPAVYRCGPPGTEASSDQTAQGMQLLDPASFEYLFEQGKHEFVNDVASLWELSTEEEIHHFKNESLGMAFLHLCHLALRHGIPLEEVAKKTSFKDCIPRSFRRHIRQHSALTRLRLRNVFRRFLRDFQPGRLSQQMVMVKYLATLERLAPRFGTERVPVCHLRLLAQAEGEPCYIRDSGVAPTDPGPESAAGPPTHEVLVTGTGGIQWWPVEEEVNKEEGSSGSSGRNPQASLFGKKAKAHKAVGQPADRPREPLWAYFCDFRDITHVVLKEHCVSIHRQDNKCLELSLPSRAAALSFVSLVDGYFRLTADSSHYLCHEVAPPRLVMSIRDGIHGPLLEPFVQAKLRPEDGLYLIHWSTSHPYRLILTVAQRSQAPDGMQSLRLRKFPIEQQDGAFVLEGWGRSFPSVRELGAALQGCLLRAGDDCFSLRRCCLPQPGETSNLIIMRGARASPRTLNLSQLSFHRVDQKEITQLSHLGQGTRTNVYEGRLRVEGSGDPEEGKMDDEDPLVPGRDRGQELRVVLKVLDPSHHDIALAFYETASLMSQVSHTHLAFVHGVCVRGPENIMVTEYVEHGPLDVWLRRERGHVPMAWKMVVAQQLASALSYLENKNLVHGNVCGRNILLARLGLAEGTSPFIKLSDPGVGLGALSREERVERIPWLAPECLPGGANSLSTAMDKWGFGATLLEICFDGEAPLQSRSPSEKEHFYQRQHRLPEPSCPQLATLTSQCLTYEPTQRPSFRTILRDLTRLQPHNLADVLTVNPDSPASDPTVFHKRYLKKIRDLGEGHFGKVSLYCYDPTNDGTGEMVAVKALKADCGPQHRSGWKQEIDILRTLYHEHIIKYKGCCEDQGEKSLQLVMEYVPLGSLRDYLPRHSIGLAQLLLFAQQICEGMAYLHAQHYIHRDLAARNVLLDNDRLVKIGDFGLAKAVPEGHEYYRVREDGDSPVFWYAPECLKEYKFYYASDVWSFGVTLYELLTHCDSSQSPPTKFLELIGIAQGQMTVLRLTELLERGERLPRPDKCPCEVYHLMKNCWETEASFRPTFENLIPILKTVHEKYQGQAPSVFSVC
# UniProt Q6PHR2: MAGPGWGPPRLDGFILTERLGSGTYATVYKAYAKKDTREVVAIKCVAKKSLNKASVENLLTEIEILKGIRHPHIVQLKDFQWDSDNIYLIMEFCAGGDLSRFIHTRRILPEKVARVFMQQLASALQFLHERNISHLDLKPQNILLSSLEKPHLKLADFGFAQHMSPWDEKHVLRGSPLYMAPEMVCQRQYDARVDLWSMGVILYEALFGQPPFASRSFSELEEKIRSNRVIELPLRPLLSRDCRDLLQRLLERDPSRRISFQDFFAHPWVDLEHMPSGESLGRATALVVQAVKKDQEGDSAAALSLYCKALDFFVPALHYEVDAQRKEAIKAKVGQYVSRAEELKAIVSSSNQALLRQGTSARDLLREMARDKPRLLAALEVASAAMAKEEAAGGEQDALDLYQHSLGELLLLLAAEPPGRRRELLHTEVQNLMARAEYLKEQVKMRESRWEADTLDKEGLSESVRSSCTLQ
# UniProt P07947, whole entry, looked up: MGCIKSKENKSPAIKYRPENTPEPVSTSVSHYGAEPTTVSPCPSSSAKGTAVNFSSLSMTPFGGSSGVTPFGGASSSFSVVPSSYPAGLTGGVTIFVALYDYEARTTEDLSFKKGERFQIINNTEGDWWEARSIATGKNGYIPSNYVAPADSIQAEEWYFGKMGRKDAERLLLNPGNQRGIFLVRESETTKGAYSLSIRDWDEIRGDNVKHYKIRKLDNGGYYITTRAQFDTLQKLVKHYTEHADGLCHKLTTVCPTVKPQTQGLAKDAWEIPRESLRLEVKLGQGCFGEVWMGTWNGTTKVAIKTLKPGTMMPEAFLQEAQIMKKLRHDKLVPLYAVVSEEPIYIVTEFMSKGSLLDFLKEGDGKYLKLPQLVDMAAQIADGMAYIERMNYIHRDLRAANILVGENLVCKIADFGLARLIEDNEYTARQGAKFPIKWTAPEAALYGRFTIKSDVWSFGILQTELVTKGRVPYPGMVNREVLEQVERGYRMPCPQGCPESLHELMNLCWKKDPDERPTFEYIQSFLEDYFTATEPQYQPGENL
# UniProt P00519, whole entry: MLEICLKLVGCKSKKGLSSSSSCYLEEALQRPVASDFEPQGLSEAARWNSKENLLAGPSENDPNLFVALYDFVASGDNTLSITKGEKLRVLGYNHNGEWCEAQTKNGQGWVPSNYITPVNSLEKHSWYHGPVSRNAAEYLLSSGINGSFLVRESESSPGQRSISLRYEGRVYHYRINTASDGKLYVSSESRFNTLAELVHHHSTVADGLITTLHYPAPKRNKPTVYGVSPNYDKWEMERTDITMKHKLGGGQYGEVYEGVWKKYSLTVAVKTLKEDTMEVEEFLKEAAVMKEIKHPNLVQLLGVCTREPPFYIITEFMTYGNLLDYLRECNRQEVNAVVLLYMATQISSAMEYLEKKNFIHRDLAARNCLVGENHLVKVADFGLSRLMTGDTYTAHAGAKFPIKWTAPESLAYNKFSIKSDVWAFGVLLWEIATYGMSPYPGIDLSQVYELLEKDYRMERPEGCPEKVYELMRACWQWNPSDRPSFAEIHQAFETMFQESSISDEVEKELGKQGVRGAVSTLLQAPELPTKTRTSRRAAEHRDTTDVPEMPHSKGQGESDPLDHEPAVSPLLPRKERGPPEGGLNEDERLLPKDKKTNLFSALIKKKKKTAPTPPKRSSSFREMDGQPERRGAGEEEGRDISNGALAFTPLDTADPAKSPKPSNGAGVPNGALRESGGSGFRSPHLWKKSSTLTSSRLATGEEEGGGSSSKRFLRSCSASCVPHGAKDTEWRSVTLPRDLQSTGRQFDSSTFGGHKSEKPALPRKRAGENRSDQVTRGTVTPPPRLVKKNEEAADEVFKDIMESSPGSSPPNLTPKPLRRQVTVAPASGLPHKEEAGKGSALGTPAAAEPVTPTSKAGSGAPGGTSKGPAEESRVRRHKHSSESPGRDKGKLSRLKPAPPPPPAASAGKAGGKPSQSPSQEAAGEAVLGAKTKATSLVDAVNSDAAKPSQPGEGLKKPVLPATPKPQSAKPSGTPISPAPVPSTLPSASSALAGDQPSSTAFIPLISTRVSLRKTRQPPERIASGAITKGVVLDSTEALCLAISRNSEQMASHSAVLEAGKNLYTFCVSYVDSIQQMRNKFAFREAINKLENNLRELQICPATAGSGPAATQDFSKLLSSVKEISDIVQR
# UniProt Q9UM73: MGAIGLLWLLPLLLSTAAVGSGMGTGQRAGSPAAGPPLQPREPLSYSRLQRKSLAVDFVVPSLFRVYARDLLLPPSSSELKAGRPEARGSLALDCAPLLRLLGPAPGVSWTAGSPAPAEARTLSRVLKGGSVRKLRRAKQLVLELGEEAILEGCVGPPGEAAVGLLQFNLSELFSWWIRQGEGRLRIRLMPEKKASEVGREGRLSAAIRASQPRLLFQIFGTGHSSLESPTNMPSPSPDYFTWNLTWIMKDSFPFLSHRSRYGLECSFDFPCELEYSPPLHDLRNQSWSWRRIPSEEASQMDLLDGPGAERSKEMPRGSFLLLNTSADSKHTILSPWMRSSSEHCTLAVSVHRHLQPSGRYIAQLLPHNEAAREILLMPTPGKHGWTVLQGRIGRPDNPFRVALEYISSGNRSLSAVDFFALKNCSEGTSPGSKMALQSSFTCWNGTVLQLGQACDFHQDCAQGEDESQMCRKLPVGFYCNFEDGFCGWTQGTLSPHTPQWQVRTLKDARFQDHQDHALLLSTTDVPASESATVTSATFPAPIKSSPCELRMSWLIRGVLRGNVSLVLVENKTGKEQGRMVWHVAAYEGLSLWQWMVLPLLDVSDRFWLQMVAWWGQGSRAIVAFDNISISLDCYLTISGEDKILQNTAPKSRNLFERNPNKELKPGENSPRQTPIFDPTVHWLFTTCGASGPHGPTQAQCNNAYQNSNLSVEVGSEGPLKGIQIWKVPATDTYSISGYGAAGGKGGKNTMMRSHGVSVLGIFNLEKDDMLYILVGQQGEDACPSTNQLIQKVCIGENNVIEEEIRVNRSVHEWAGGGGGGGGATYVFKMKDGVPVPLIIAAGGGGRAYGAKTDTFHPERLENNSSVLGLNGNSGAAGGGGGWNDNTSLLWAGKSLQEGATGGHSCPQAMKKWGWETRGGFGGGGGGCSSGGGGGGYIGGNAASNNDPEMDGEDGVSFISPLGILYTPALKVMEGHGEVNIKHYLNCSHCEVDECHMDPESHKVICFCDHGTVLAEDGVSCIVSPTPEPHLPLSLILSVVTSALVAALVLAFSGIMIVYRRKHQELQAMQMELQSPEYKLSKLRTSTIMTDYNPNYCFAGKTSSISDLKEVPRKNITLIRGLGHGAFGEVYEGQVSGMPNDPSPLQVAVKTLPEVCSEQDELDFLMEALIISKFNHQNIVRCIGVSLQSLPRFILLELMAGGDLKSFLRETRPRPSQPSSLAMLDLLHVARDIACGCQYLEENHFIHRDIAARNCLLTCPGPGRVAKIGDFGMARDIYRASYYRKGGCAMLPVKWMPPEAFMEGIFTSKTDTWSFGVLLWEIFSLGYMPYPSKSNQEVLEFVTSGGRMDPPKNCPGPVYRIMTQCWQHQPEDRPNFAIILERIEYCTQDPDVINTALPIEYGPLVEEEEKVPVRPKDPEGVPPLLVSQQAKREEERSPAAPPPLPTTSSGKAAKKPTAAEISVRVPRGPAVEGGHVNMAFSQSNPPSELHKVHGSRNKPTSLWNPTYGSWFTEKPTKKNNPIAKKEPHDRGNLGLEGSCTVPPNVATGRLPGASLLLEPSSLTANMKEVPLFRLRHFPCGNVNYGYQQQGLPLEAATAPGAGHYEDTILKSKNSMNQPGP
# UniProt P10398: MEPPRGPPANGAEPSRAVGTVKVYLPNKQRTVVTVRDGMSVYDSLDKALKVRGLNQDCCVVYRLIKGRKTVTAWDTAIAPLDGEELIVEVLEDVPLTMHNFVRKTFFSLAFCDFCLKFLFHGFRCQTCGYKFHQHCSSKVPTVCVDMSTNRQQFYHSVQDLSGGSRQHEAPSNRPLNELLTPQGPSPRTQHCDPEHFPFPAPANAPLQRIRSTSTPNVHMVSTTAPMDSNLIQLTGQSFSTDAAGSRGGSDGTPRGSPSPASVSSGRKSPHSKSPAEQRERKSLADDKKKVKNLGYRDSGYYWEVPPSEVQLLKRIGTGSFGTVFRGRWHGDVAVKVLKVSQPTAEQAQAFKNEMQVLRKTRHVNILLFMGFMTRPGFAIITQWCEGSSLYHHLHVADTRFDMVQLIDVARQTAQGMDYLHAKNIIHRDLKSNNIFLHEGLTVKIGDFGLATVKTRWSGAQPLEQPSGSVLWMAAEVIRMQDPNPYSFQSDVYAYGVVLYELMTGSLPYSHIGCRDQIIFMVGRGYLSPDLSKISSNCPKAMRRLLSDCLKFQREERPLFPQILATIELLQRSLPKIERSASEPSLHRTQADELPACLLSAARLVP
# UniProt Q9UQB9: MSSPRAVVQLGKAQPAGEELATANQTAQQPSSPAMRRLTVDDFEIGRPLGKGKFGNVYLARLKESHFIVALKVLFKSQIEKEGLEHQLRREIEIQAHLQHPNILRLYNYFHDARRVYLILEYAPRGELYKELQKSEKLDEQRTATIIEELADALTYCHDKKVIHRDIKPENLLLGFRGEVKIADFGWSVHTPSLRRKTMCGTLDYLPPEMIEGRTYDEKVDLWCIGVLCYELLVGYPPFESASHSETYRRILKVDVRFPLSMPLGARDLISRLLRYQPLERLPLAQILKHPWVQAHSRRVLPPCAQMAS
# Counter-ions that a name gives are not always drawn. The list shows a part of the results. Hit calls seldom repeat between salt and free forms of one compound.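 Kinases, fused to nanoluciferase, were expressed in K562 cells; luminescence was measured every 4 h from 2 to 18 h as percent of control (DMSO = 100%, positive control = 0%). A time point is decreased if signal falls significantly (2 sigma). Hits were called by the authors by a rule that is not shown; the count of time points alone does not decide it.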
# Tests used:
# Conditions in all cases: K562; 2-18 h
# STK38 = STK38 (UniProt Q15208); assay: kinase-Nluc reporter destabilization hit call (1 = scored as downregulated) (binary); higher = compound decreases kinase abundance
# SYK = SYK (UniProt P43405); assay: as above
# TEC = TEC (UniProt P42680); assay: as above
# TYK2 = TYK2 (UniProt P29597); assay: as above
# ULK3 = ULK3 (UniProt Q6PHR2); assay: as above
# YES1 = YES1 (UniProt P07947); assay: as above
# ZAK = ZAK (UniProt Q9NYL2); assay: as above
# ZAP70 = ZAP70 (UniProt P43403); assay: as above
# ABL1 = ABL1 (UniProt P00519); assay: number of time points (of 5) at which kinase-Nluc abundance scored as decreased, DMSO-normalised (count); higher = more persistent destabilization
# AKT1 = AKT1 (UniProt P31749); assay: as above
# ALK = ALK (UniProt Q9UM73); assay: as above
# ARAF = ARAF (UniProt P10398); assay: as above
# AURKA = AURKA (UniProt O14965); assay: as above
# AURKB = AURKB (UniProt Q96GD4); assay: as above
# AURKC = AURKC (UniProt Q9UQB9); assay: as above
# BLK = BLK (UniProt P51451); assay: as above
# BMX = BMX (UniProt P51813); assay: as above
# BRAF = BRAF (UniProt P15056); assay: as above
# BRAF_V600E = assay: as above
# BTK = BTK (UniProt Q06187); assay: as above
Structure (SMILES),kinase-Nluc reporter destabilization hit call (STK38),kinase-Nluc reporter destabilization hit call (SYK),kinase-Nluc reporter destabilization hit call (TEC),kinase-Nluc reporter destabilization hit call (TYK2),kinase-Nluc reporter destabilization hit call (ULK3),kinase-Nluc reporter destabilization hit call (YES1),kinase-Nluc reporter destabilization hit call (ZAK),kinase-Nluc reporter destabilization hit call (ZAP70),number of time points (ABL1),number of time points (AKT1),number of time points (ALK),number of time points (ARAF),number of time points (AURKA),number of time points (AURKB),number of time points (AURKC),number of time points (BLK),number of time points (BMX),number of time points (BRAF),number of time points (BRAF_V600E),number of time points (BTK)
Cc1ccc(-c2ccc3c(ccc4sc5c(c43)NC[C@@H](C)NC5=O)n2)cn1 (10 µM),inactive: 0,inactive: 0,inactive: 0,inactive: 0,inactive: 0,inactive: 0,inactive: 0,inactive: 0,0,0,0,0,0,0,0,0,0,0,0,0
CC(=O)Nc1nc(C)c(-c2nc(N3CCCC(O)C3)no2)s1 (stereo not given) (10 µM),inactive: 0,inactive: 0,inactive: 0,inactive: 0,inactive: 0,inactive: 0,inactive: 0,inactive: 0,0,0,0,0,0,0,0,0,0,0,0,0
COc1cc(N2CCC(N(C)C)CC2)ccc1Nc1ncc(Cl)c(Nc2ccccc2P(C)(C)=O)n1 (2.5 µM),inactive: 0,inactive: 0,inactive: 0,inactive: 0,inactive: 0,inactive: 0,inactive: 0,inactive: 0,0,0,0,0,0,0,0,1,0,0,0,0
O=C(O)c1ccccc1Nc1cccc(C(F)(F)F)c1 [Flufenamic acid] (10 µM),inactive: 0,inactive: 0,inactive: 0,inactive: 0,inactive: 0,inactive: 0,inactive: 0,inactive: 0,0,0,0,0,0,0,0,0,0,0,0,0
O=C1NC(=O)C(c2cnc3ccccn23)=C1c1cn2c3c(cc(F)cc13)CN(C(=O)N1CCCCC1)CC2 (2.5 µM),inactive: 0,inactive: 0,inactive: 0,inactive: 0,inactive: 0,inactive: 0,inactive: 0,inactive: 0,0,0,0,0,0,0,0,0,5,0,0,0
COc1ccccc1/C=C1\C(=O)Nc2ccccc21 (10 µM),inactive: 0,inactive: 0,inactive: 0,inactive: 0,inactive: 0,inactive: 0,inactive: 0,inactive: 0,0,0,0,0,0,0,0,0,0,0,0,0
CC1=C(CC(=O)O)c2cc(F)ccc2/C1=C\c1ccc(C(C)C)cc1 (10 µM),inactive: 0,inactive: 0,inactive: 0,inactive: 0,inactive: 0,inactive: 0,inactive: 0,inactive: 0,0,0,0,0,0,0,0,0,0,0,0,0
COc1cc(N2CCC(N3CCN(C)CC3)CC2)ccc1Nc1nc2c(c(Nc3ccccc3S(=O)(=O)NC(C)C)n1)CCN2 [Conteltinib] (10 µM),inactive: 0,inactive: 0,inactive: 0,inactive: 0,inactive: 0,inactive: 0,inactive: 0,inactive: 0,0,0,0,0,0,0,0,0,0,0,0,0
CN(C)Cc1cccc(N=C(c2ccccc2)c2c(O)[nH]c3cc(C(N)=O)ccc23)c1 (10 µM),inactive: 0,inactive: 0,inactive: 0,inactive: 0,inactive: 0,inactive: 0,inactive: 0,inactive: 0,0,0,0,0,0,0,0,0,0,0,0,0
CCCCNC(=N)NC(=N)N [Buformin (hydrochloride)] (2.5 µM),inactive: 0,inactive: 0,inactive: 0,inactive: 0,inactive: 0,inactive: 0,inactive: 0,inactive: 0,0,0,0,0,0,0,0,0,0,0,0,0
CN(C)c1ncnc2nc[nH]c12 [6-(Dimethylamino)purine] (10 µM),inactive: 0,inactive: 0,inactive: 0,inactive: 0,inactive: 0,inactive: 0,inactive: 0,inactive: 0,0,0,0,0,0,0,0,0,0,0,0,0
O=C(CCCCCn1cc(Nc2ncc(Cl)c(Nc3ccc(Cl)cc3)n2)cn1)NO (2.5 µM),inactive: 0,inactive: 0,inactive: 0,inactive: 0,inactive: 0,inactive: 0,inactive: 0,inactive: 0,0,0,0,0,0,0,0,0,0,0,0,0
CCc1c(C)sc(NC(=S)NC(=O)c2ccc(Cl)cc2)c1C(N)=O (10 µM),inactive: 0,inactive: 0,inactive: 0,inactive: 0,inactive: 0,inactive: 0,inactive: 0,inactive: 0,0,0,0,0,0,0,0,0,0,0,0,0
CC(C)c1cc(/C=C(\C#N)C(N)=O)cc(C(C)C)c1O (10 µM),inactive: 0,inactive: 0,inactive: 0,inactive: 0,inactive: 0,inactive: 0,inactive: 0,inactive: 0,0,0,0,0,0,0,0,0,0,0,0,0
"CC(C)C[C@H](NC(=O)[C@H](CCCCN)NC(=O)[C@H](CO)NC(=O)[C@@H](N)CC(C)C)C(N)=O [LSKL, Inhibitor of Thrombospondin (TSP-1) (TFA)] (10 µM)",inactive: 0,inactive: 0,inactive: 0,inactive: 0,inactive: 0,inactive: 0,inactive: 0,inactive: 0,0,0,0,0,0,0,0,0,0,0,0,0
CSc1ccc(CN2CCCC(Nc3ccc4[nH]ncc4c3)C2)cc1 (stereo not given) [Rho-Kinase-IN-1] (10 µM),inactive: 0,inactive: 0,inactive: 0,inactive: 0,inactive: 0,inactive: 0,inactive: 0,inactive: 0,0,0,0,0,0,0,0,0,0,0,0,0
CCCCOc1ccc(CC/C=C2\SC(=O)N(CCN)C2=O)cc1 [K145 (hydrochloride)] (2.5 µM),inactive: 0,inactive: 0,inactive: 0,inactive: 0,inactive: 0,inactive: 0,inactive: 0,inactive: 0,0,0,0,0,0,0,0,0,0,0,0,0
CC[C@@H]1[C@H](F)C(=O)N[C@@H]1COc1nccc2cc(C(N)=O)c(OC)cc12 (10 µM),inactive: 0,inactive: 0,inactive: 0,inactive: 0,inactive: 0,inactive: 0,inactive: 0,inactive: 0,0,0,0,0,0,0,0,0,0,0,0,0
CC(C)N(C)c1nc2cc(C(=O)O)ccc2nc1-c1ccc(F)cc1 (10 µM),inactive: 0,inactive: 0,inactive: 0,inactive: 0,inactive: 0,inactive: 0,inactive: 0,inactive: 0,0,0,0,0,0,0,0,0,0,0,0,0
Fc1c(Br)cccc1Nc1ncnc2cc3c(cc12)OCCO3 (2.5 µM),inactive: 0,inactive: 0,inactive: 0,inactive: 0,inactive: 0,inactive: 0,inactive: 0,inactive: 0,1,0,0,0,0,0,0,0,2,0,0,0
CC(CCc1ccccn1)(CCc1ccccn1)C(=O)c1ccccc1 (10 µM),inactive: 0,inactive: 0,inactive: 0,inactive: 0,inactive: 0,inactive: 0,inactive: 0,inactive: 0,2,0,0,0,0,0,0,0,0,0,0,0
NS(=O)(=O)c1ccc(N2N=C(c3ccccc3)CC2c2ccccc2)cc1 (stereo not given) (10 µM),inactive: 0,inactive: 0,inactive: 0,inactive: 0,inactive: 0,inactive: 0,inactive: 0,inactive: 0,1,0,0,0,0,0,0,0,0,0,0,0

# In another format: entries from further up
Structure (SMILES)	kinase-Nluc reporter destabilization hit call (STK38)	kinase-Nluc reporter destabilization hit call (SYK)	kinase-Nluc reporter destabilization hit call (TEC)	kinase-Nluc reporter destabilization hit call (TYK2)	kinase-Nluc reporter destabilization hit call (ULK3)	kinase-Nluc reporter destabilization hit call (YES1)	kinase-Nluc reporter destabilization hit call (ZAK)	kinase-Nluc reporter destabilization hit call (ZAP70)	number of time points (ABL1)	number of time points (AKT1)	number of time points (ALK)	number of time points (ARAF)	number of time points (AURKA)	number of time points (AURKB)	number of time points (AURKC)	number of time points (BLK)	number of time points (BMX)	number of time points (BRAF)	number of time points (BRAF_V600E)	number of time points (BTK)
O=C(CCCCCn1cc(Nc2ncc(Cl)c(Nc3ccc(Cl)cc3)n2)cn1)NO (2.5 µM)	inactive: 0	inactive: 0	inactive: 0	inactive: 0	inactive: 0	inactive: 0	inactive: 0	inactive: 0	0	0	0	0	0	0	0	0	0	0	0	0
CCc1c(C)sc(NC(=S)NC(=O)c2ccc(Cl)cc2)c1C(N)=O (10 µM)	inactive: 0	inactive: 0	inactive: 0	inactive: 0	inactive: 0	inactive: 0	inactive: 0	inactive: 0	0	0	0	0	0	0	0	0	0	0	0	0
CC(C)c1cc(/C=C(\C#N)C(N)=O)cc(C(C)C)c1O (10 µM)	inactive: 0	inactive: 0	inactive: 0	inactive: 0	inactive: 0	inactive: 0	inactive: 0	inactive: 0	0	0	0	0	0	0	0	0	0	0	0	0
CC(C)C[C@H](NC(=O)[C@H](CCCCN)NC(=O)[C@H](CO)NC(=O)[C@@H](N)CC(C)C)C(N)=O [LSKL, Inhibitor of Thrombospondin (TSP-1) (TFA)] (10 µM)	inactive: 0	inactive: 0	inactive: 0	inactive: 0	inactive: 0	inactive: 0	inactive: 0	inactive: 0	0	0	0	0	0	0	0	0	0	0	0	0
CSc1ccc(CN2CCCC(Nc3ccc4[nH]ncc4c3)C2)cc1 (stereo not given) [Rho-Kinase-IN-1] (10 µM)	inactive: 0	inactive: 0	inactive: 0	inactive: 0	inactive: 0	inactive: 0	inactive: 0	inactive: 0	0	0	0	0	0	0	0	0	0	0	0	0
